Data from the supplement of paper PMC12819154, “High-throughput peptide-centric local stability assay extends protein–ligand identification to membrane proteins, tissues and bacteria” (Nature Structural & Molecular Biology, 2025).
Some of the results follow. Most entries show no effect beyond the scatter of the controls.

Chains of the proteins cited; added tags and fusions are not shown. Lines headed by an entry give the natural chain unless they say otherwise; changes in a name come on top.
UniProt P23874: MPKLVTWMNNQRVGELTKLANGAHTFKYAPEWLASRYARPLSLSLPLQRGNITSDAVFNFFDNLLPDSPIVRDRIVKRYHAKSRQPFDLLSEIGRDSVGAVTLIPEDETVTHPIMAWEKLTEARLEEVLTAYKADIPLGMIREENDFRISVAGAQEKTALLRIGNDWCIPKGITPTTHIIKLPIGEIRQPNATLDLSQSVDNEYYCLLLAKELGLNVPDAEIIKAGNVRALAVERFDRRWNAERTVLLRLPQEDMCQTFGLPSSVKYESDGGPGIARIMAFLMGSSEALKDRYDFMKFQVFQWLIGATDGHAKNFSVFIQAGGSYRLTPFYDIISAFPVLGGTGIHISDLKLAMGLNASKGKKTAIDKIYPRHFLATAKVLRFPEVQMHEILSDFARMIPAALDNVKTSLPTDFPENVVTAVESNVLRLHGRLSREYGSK
UniProt P0CK95: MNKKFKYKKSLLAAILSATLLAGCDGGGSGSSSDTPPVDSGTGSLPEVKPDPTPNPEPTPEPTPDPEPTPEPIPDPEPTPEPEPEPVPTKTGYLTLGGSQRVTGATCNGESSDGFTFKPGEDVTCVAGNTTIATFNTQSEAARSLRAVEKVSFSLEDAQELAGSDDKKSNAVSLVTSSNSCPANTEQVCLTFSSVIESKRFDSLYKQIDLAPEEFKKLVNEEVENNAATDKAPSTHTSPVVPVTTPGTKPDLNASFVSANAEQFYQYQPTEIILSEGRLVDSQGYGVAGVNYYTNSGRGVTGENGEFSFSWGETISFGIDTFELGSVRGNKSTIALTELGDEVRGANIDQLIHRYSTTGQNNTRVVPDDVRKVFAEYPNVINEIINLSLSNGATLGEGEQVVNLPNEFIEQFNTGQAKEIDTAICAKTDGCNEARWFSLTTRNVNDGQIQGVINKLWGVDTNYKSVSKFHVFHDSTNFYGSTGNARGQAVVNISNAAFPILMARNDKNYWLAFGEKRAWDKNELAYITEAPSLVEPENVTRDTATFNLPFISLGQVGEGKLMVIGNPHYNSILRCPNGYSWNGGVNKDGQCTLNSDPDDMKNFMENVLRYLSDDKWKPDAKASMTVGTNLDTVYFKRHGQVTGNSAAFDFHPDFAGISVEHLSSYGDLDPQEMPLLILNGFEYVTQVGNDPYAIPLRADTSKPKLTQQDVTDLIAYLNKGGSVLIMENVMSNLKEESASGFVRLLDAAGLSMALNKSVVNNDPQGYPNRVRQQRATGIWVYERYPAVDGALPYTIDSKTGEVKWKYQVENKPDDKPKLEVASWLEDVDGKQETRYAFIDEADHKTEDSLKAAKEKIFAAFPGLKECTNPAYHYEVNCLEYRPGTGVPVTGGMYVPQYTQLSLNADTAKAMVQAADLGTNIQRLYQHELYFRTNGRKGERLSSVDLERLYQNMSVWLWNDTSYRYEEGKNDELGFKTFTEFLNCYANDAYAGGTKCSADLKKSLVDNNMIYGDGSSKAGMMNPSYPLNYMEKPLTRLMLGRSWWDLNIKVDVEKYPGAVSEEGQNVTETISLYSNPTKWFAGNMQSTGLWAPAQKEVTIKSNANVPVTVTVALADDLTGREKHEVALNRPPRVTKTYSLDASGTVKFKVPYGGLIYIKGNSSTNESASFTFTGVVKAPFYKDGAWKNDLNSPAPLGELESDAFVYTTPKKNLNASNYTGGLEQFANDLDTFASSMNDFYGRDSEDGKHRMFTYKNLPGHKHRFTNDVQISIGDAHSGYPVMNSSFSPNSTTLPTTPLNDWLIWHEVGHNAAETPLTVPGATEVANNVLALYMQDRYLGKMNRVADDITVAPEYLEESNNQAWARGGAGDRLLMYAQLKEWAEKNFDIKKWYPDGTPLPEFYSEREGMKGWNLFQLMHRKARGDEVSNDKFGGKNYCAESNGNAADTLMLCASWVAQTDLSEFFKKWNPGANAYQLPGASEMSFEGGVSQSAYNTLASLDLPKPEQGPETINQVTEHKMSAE
UniProt P23331: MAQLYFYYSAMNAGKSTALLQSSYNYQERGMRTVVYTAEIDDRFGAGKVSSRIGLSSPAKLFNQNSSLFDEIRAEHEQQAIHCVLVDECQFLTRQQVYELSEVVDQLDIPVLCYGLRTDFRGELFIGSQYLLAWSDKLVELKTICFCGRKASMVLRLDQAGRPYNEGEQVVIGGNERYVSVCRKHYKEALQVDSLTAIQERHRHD
UniProt P0DPP7: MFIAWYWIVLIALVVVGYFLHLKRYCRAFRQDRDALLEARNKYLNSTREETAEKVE
UniProt P22524: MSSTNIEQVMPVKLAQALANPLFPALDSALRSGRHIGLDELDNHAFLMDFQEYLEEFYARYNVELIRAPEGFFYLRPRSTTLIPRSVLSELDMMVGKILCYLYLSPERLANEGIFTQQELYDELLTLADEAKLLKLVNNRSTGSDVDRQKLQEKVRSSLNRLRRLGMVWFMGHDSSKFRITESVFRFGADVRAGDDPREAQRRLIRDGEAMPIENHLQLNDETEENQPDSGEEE
UniProt P15034: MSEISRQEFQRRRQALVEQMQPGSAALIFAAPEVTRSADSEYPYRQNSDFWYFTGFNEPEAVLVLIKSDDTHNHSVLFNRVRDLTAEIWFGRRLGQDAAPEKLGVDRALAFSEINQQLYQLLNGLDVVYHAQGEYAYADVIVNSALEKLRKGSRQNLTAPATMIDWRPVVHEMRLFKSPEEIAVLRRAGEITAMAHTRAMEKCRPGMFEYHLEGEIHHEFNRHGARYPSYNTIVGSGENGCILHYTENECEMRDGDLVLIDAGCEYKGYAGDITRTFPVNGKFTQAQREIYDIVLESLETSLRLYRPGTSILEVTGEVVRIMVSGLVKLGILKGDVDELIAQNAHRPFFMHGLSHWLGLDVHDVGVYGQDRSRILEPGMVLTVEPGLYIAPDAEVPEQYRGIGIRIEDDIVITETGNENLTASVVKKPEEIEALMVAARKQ
UniProt P15078: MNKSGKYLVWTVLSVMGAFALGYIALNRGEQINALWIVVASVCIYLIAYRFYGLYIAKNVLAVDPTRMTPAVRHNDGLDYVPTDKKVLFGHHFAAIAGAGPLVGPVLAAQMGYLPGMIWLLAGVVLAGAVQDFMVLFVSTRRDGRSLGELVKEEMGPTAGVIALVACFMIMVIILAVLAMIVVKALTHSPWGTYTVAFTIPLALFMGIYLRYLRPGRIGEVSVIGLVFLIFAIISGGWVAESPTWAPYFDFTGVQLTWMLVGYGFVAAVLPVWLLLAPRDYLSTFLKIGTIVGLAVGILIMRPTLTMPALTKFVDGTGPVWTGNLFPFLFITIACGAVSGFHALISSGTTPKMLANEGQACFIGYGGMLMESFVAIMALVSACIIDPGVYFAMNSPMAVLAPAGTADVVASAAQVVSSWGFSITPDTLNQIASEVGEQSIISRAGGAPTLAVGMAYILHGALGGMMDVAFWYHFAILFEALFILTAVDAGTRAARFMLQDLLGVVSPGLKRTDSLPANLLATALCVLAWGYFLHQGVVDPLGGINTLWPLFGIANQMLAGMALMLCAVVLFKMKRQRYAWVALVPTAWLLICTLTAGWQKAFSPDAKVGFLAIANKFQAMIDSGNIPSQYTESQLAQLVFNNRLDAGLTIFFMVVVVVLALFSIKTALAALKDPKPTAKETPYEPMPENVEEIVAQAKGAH
UniProt P0DP64: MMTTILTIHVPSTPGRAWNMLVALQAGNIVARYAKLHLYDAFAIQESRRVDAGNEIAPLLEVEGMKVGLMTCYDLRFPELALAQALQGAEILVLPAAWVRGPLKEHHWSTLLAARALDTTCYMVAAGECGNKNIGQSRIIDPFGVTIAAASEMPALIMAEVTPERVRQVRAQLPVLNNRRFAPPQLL
UniProt P13035: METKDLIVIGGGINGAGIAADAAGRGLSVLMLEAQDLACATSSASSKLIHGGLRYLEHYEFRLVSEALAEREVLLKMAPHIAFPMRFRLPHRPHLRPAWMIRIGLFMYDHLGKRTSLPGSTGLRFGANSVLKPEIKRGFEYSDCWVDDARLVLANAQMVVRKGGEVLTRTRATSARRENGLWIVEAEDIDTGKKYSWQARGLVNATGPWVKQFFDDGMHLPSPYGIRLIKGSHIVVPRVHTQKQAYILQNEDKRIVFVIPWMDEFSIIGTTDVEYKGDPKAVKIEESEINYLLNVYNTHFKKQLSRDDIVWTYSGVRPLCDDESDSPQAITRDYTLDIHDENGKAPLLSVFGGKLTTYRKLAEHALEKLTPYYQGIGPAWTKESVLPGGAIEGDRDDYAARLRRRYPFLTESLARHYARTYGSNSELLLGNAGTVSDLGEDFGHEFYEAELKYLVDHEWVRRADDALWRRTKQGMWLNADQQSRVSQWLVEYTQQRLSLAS
UniProt P11290: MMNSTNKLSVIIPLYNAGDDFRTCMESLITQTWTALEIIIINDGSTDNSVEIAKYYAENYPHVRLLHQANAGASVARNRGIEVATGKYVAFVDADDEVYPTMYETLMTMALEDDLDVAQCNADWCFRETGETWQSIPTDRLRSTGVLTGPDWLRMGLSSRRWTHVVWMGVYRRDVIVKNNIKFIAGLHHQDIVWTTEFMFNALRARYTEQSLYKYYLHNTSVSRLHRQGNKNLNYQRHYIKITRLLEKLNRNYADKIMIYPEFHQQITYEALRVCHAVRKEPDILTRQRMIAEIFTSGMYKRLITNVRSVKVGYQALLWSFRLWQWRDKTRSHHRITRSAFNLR

compound: CC1(C)S[C@@H]2[C@H](NC(=O)[C@H](N)c3ccccc3)C(=O)N2[C@H]1C(=O)O [ampicillin]; test: log2 fold change of tryptic peptide abundance, ligand vs vehicle (limited proteolysis) (log2 ratio); higher = more trypsin-susceptible (destabilized); conditions: ligand concentration: 10 uM; sample: E. coli crude lysate

| Target | log2 fold change |
| --- | --- |
| UniProt P23874 (peptide sequence: MIPAALDNVK, peptide start residue: 398) | 0.262 |
| UniProt P0CK95 (peptide sequence: WFSLTTR, peptide start residue: 436) | 0.128 |
| UniProt P23331 (peptide sequence: GMRTVVYTAEIDDRFGAGK, peptide start residue: 30) | 0.165 |
| UniProt P0DPP7 (peptide sequence: NKYLNSTR, peptide start residue: 41) | -0.0844 |
| UniProt P15373 (peptide sequence: TRPFNIQQGK, peptide start residue: 84) | -0.512 |
| UniProt P22524 (peptide sequence: APEGFFYLRPR, peptide start residue: 68) | -0.214 |
| UniProt P15034 (peptide sequence: LGQDAAPEKLGVDR, peptide start residue: 94) | -0.425 |
| UniProt P15078 (peptide sequence: HNDGLDYVPTDKK, peptide start residue: 74) | 0.0413 |
| UniProt P0DP64 (peptide sequence: RVDAGNEIAPLLEVEGMK, peptide start residue: 49) | 0.0974 |
| UniProt P13035 (peptide sequence: ENGLWIVEAEDIDTGKK, peptide start residue: 178) | 0.899 |
| UniProt P11290 (peptide sequence: DVIVKNNIK, peptide start residue: 174) | -0.113 |

Nothing new here: an excerpt of the list.

| Target | log2 fold change |
| --- | --- |
| UniProt P22524 (peptide sequence: APEGFFYLRPR, peptide start residue: 68) | -0.214 |
| UniProt P15034 (peptide sequence: LGQDAAPEKLGVDR, peptide start residue: 94) | -0.425 |
